Source: PubChem BioAssay AID330 (DTP/NCI, 2004)
The list is a part of this screen's results and no random one: it covers a few groups of compounds. Not every dose and run of a compound is shown. T/C gives the treated animals as a percentage of the vehicle group. For survival time, this PubChem deposit counts one and a half times the control or more as active, and values a quarter to a half above the control carry no call in these data; other NCI protocols may use other cut-offs. Schedules are NCI's codes, read here as Q, the interval in days (D) or hours (H), X, the number of doses. Some T/C values are marked as having no survivor count here; that says nothing about deaths at the dose. Some entries hold several experiments; the results are listed from low to high. Counts like (3×) stand for listed records that agree.

System: P388 leukemia ip, CD2F1 mice, survival T/C
Experiment: NCI In Vivo Anticancer Drug Screen. Data for tumor model P388 Leukemia (intraperitoneal) in CD2F1 (CDF1) mice
Conditions: higher T/C = longer survival

CC(=O)OCC12CCC(C)=CC1OC1C(O)C(OC(C)=O)C2(C)C12CO2 (stereo unspecified)
T/C (T/C endpoint: mean survival time, dose: 0.03 mg/kg/injection, schedule: Q01DX010 (ip), vehicle: Klucel (hydroxypropylcellulose) (HPC)): 98 % of control [survivor count not shown]
T/C (T/C endpoint: mean survival time, dose: 0.03 mg/kg/injection, schedule: Q01DX010 (iv), vehicle: Klucel (hydroxypropylcellulose) (HPC)): 103 % of control [survivor count not shown]
T/C (T/C endpoint: mean survival time, dose: 0.05 mg/kg/injection, schedule: Q01DX010 (iv), vehicle: Klucel (hydroxypropylcellulose) (HPC)): 98 % of control [survivor count not shown]
T/C (T/C endpoint: mean survival time, dose: 0.05 mg/kg/injection, schedule: Q01DX010 (sc), vehicle: Klucel (hydroxypropylcellulose) (HPC)): 106 % of control [survivor count not shown]
T/C (T/C endpoint: mean survival time, dose: 0.1 mg/kg/injection, schedule: Q01DX010 (ip), vehicle: Klucel (hydroxypropylcellulose) (HPC)): 98 % of control [survivor count not shown]
T/C (T/C endpoint: mean survival time, dose: 0.1 mg/kg/injection, schedule: Q01DX010 (iv), vehicle: Klucel (hydroxypropylcellulose) (HPC)): 99 % of control [survivor count not shown]
T/C (T/C endpoint: mean survival time, dose: 0.1 mg/kg/injection, schedule: Q01DX010 (oral), vehicle: Klucel (hydroxypropylcellulose) (HPC)): 100 % of control [survivor count not shown]
T/C (T/C endpoint: mean survival time, dose: 0.1 mg/kg/injection, schedule: Q01DX010 (sc), vehicle: Klucel (hydroxypropylcellulose) (HPC)): 91 % of control [survivor count not shown]
T/C (T/C endpoint: mean survival time, dose: 0.2 mg/kg/injection, schedule: Q01DX010 (im), vehicle: Klucel (hydroxypropylcellulose) (HPC)): 89 % of control [survivor count not shown]
T/C (T/C endpoint: mean survival time, dose: 0.2 mg/kg/injection, schedule: Q01DX010 (ip), vehicle: Klucel (hydroxypropylcellulose) (HPC)): 135 % of control [survivor count not shown]
T/C (T/C endpoint: mean survival time, dose: 0.2 mg/kg/injection, schedule: Q01DX010 (iv), vehicle: Klucel (hydroxypropylcellulose) (HPC)): 93 % of control [survivor count not shown]
T/C (T/C endpoint: mean survival time, dose: 0.2 mg/kg/injection, schedule: Q01DX010 (oral), vehicle: Klucel (hydroxypropylcellulose) (HPC)): 102 % of control [survivor count not shown]
T/C (T/C endpoint: mean survival time, dose: 0.2 mg/kg/injection, schedule: Q01DX010 (sc), vehicle: Klucel (hydroxypropylcellulose) (HPC)): 102 % of control [survivor count not shown]
T/C (T/C endpoint: mean survival time, dose: 0.4 mg/kg/injection, schedule: Q01DX010 (im), vehicle: Klucel (hydroxypropylcellulose) (HPC)): 105 % of control [survivor count not shown]
T/C (T/C endpoint: mean survival time, dose: 0.4 mg/kg/injection, schedule: Q01DX010 (ip), vehicle: Klucel (hydroxypropylcellulose) (HPC)): 167 % of control [survivor count not shown]
T/C (T/C endpoint: mean survival time, dose: 0.4 mg/kg/injection, schedule: Q01DX010 (iv), vehicle: Klucel (hydroxypropylcellulose) (HPC)): 98 % of control [survivor count not shown]
T/C (T/C endpoint: mean survival time, dose: 0.4 mg/kg/injection, schedule: Q01DX010 (oral), vehicle: Klucel (hydroxypropylcellulose) (HPC)): 98 % of control [survivor count not shown]
T/C (T/C endpoint: mean survival time, dose: 0.8 mg/kg/injection, schedule: Q01DX010 (im), vehicle: Klucel (hydroxypropylcellulose) (HPC)): 118 % of control [survivor count not shown]
T/C (T/C endpoint: mean survival time, dose: 0.8 mg/kg/injection, schedule: Q01DX010 (ip), vehicle: Klucel (hydroxypropylcellulose) (HPC)): 150 % of control [survivor count not shown]
T/C (T/C endpoint: mean survival time, dose: 0.8 mg/kg/injection, schedule: Q01DX010 (iv), vehicle: Klucel (hydroxypropylcellulose) (HPC)): 107 % of control [survivor count not shown]
T/C (T/C endpoint: mean survival time, dose: 0.8 mg/kg/injection, schedule: Q01DX010 (oral), vehicle: Klucel (hydroxypropylcellulose) (HPC)): 99 % of control [survivor count not shown]
T/C (T/C endpoint: mean survival time, dose: 0.8 mg/kg/injection, schedule: Q01DX010 (sc), vehicle: Klucel (hydroxypropylcellulose) (HPC)): 107 % of control [survivor count not shown]
T/C (T/C endpoint: mean survival time, dose: 1.6 mg/kg/injection, schedule: Q01DX010 (im), vehicle: Klucel (hydroxypropylcellulose) (HPC)): 132 % of control [survivor count not shown]
T/C (T/C endpoint: mean survival time, dose: 1.6 mg/kg/injection, schedule: Q01DX010 (ip), vehicle: Klucel (hydroxypropylcellulose) (HPC)): 164 % of control [survivor count not shown]
T/C (T/C endpoint: mean survival time, dose: 1.6 mg/kg/injection, schedule: Q01DX010 (iv), vehicle: Klucel (hydroxypropylcellulose) (HPC)): 133 % of control [survivor count not shown]
T/C (T/C endpoint: mean survival time, dose: 1.6 mg/kg/injection, schedule: Q01DX010 (sc), vehicle: Klucel (hydroxypropylcellulose) (HPC)): 132 % of control [survivor count not shown]
T/C (T/C endpoint: mean survival time, dose: 3.2 mg/kg/injection, schedule: Q01DX010 (oral), vehicle: Klucel (hydroxypropylcellulose) (HPC)): 127 % of control [survivor count not shown]
T/C (T/C endpoint: median survival time, dose: 0.06 mg/kg/injection, schedule: Q03HX008 (ip), vehicle: saline): 118 % of control [survivor count not shown]
T/C (T/C endpoint: median survival time, dose: 0.06 mg/kg/injection, schedule: Q03HX016 (ip), vehicle: saline): 122 % of control [survivor count not shown]
T/C (T/C endpoint: median survival time, dose: 0.06 mg/kg/injection, schedule: Q03HX024 (ip), vehicle: saline): 136 % of control [survivor count not shown]
T/C (T/C endpoint: median survival time, dose: 0.13 mg/kg/injection, schedule: Q01DX009 (ip), vehicle: saline sonified): 129 % of control [survivor count not shown]
T/C (T/C endpoint: median survival time, dose: 0.13 mg/kg/injection, schedule: Q03HX008 (ip), vehicle: saline): 136 % of control [survivor count not shown]
T/C (T/C endpoint: median survival time, dose: 0.13 mg/kg/injection, schedule: Q03HX024 (ip), vehicle: saline): 150 % of control [survivor count not shown]
T/C (T/C endpoint: median survival time, dose: 0.25 mg/kg/injection, schedule: Q01DX009 (ip), vehicle: saline sonified): 133 % of control [survivor count not shown]
T/C (T/C endpoint: median survival time, dose: 0.25 mg/kg/injection, schedule: Q01DX009 (ip), vehicle: saline with Tween-80): 151 % of control [survivor count not shown]
T/C (T/C endpoint: median survival time, dose: 0.25 mg/kg/injection, schedule: Q01DX009 (ip), vehicle: saline, evaluated on day 5): 141 [survivor count not shown] and 157 % of control [survivor count not shown]
T/C (T/C endpoint: median survival time, dose: 0.25 mg/kg/injection, schedule: Q01DX009 (ip), vehicle: saline, evaluated on day 60): 160 % of control [survivor count not shown]
T/C (T/C endpoint: median survival time, dose: 0.25 mg/kg/injection, schedule: Q03HX016 (ip), vehicle: saline): 140 % of control [survivor count not shown]
T/C (T/C endpoint: median survival time, dose: 0.25 mg/kg/injection, schedule: Q03HX024 (ip), vehicle: saline): 177 % of control [survivor count not shown]
T/C (T/C endpoint: median survival time, dose: 0.5 mg/kg/injection, schedule: Q01DX005 (ip), vehicle: saline): 142 % of control [survivor count not shown]
T/C (T/C endpoint: median survival time, dose: 0.5 mg/kg/injection, schedule: Q01DX005 (ip), vehicle: water): 138 [survivor count not shown] and 144 % of control [survivor count not shown]
T/C (T/C endpoint: median survival time, dose: 0.5 mg/kg/injection, schedule: Q01DX009 (ip), vehicle: saline + alcohol, evaluated on day 30): 144 [survivor count not shown], 161 [survivor count not shown], 169 % of control [survivor count not shown]
T/C (T/C endpoint: median survival time, dose: 0.5 mg/kg/injection, schedule: Q01DX009 (ip), vehicle: saline + alcohol, evaluated on day 35): 158 % of control [survivor count not shown]
T/C (T/C endpoint: median survival time, dose: 0.5 mg/kg/injection, schedule: Q01DX009 (ip), vehicle: saline with Tween-80): 134 [survivor count not shown], 151 [survivor count not shown], 171 % of control [survivor count not shown]
T/C (T/C endpoint: median survival time, dose: 0.5 mg/kg/injection, schedule: Q01DX009 (ip), vehicle: saline, evaluated on day 5): 151 [survivor count not shown] and 182 % of control [survivor count not shown]
T/C (T/C endpoint: median survival time, dose: 0.5 mg/kg/injection, schedule: Q01DX009 (ip), vehicle: saline, evaluated on day 30): 100 [survivor count not shown], 135 [survivor count not shown], 145 [survivor count not shown], 147 [survivor count not shown], 153 [survivor count not shown], 158 [survivor count not shown] (2×), 171 % of control [survivor count not shown]
T/C (T/C endpoint: median survival time, dose: 0.5 mg/kg/injection, schedule: Q01DX009 (ip), vehicle: saline, evaluated on day 60): 160 % of control [survivor count not shown]
T/C (T/C endpoint: median survival time, dose: 0.5 mg/kg/injection, schedule: Q01DX009 (ip), vehicle: water, evaluated on day 30): 136 [survivor count not shown], 152 [survivor count not shown], 156 [survivor count not shown], 157 % of control [survivor count not shown] (2×)
T/C (T/C endpoint: median survival time, dose: 0.5 mg/kg/injection, schedule: Q01DX009 (ip), vehicle: water, evaluated on day 45): 158 % of control [survivor count not shown]
T/C (T/C endpoint: median survival time, dose: 0.5 mg/kg/injection, schedule: Q01DX009 (iv), vehicle: saline): 136 % of control [survivor count not shown]
T/C (T/C endpoint: median survival time, dose: 0.5 mg/kg/injection, schedule: Q01DX009 (sc), vehicle: saline): 150 % of control [survivor count not shown]
T/C (T/C endpoint: median survival time, dose: 0.5 mg/kg/injection, schedule: Q03HX008 (ip), vehicle: saline): 136 % of control [survivor count not shown]
T/C (T/C endpoint: median survival time, dose: 0.5 mg/kg/injection, schedule: Q03HX016 (ip), vehicle: saline): 165 % of control [survivor count not shown]
T/C (T/C endpoint: median survival time, dose: 0.5 mg/kg/injection, schedule: Q03HX024 (ip), vehicle: saline): 172 [survivor count not shown] and 186 % of control [survivor count not shown]
T/C (T/C endpoint: median survival time, dose: 1.0 mg/kg/injection, schedule: Q01DX005 (ip), vehicle: saline): 149 % of control [survivor count not shown]
T/C (T/C endpoint: median survival time, dose: 1.0 mg/kg/injection, schedule: Q01DX005 (ip), vehicle: water): 151 [survivor count not shown] and 152 % of control [survivor count not shown]
